These are yes or no findings as the source states them, for the method shown. Binding seen in cells or lysates may run through a third protein. Some binding calls cover weakened binding; strength is not graded here. For some assays here: Sequences can lack the tags named with a protein.
B1: Cbp20-mNG (protein, UniProt Q08920 1-208)
chain: MSLEEFDEVKYDHSTKRLDTPSRYLLRKARRNPNGLQELRESMKSSTIYVGNLSFYTSEEQIYELFSKCGTIKRIIMGLDRFKFTPCGFCFIIYSCPDEALNALKYLSDTKLDEKTITIDLDPGFEDGRQFGRGKSGGQVSDELRFDFDASRGGFAIPFAERVGVPHSRFDNSSSQSNTNNYIPPPDAMGTFRPGFDEEREDDNYVPQ
B2: Cbp20-SNAPf-3HA (protein, UniProt Q08920 1-208)
chain: B1 chain
modifications: SNAP-Surface 649 dye on the SNAPf tag (partially labeled)
B3: Mtr2 (protein, UniProt P34232 1-184)
chain: MNTNSNTMVMNDANQAQITATFTKKILAHLDDPDSNKLAQFVQLFNPNNCRIIFNATPFAQATVFLQMWQNQVVQTQHALTGVDYHAIPGSGTLICNVNCKVRFDESGRDKMGQDATVPIQPNNTGNRNRPNDMNKPRPLWGPYFGISLQLIIDDRIFRNDFNGVISGFNYNMVYKPEDSLLKI
B4: Nop58-mNG (protein, UniProt Q12499 1-511)
chain: MAYVLTETSAGYALLKASDKKIYKSSSLIQDLDSSDKVLKEFKIAAFSKFNSAANALEEANSIIEGKVSSQLEKLLEEIKKDKKSTLIVSETKLANAINKLGLNFNVVSDAVTLDIYRAIKEYLPELLPGMSDNDLSKMSLGLAHSIGRHKLKFSADKVDVMIIQAIALLDDLDKELNTYAMRCKEWYGWHFPELAKIVTDSVAYARIILTMGIRSKASETDLSEILPEEIEERVKTAAEVSMGTEITQTDLDNINALAEQIVEFAAYREQLSNYLSARMKAIAPNLTQLVGELVGARLIAHSGSLISLAKSPASTIQILGAEKALFRALKTKHDTPKYGLLYHASLVGQATGKNKGKIARVLAAKAAVSLRYDALAEDRDDSGDIGLESRAKVENRLSQLEGRDLRTTPKVVREAKKVEMTEARAYNADADTAKAASDSESDSDDEEEEKKEKKEKKRKRDDDEDSKDSKKAKKEKKDKKEKKEKKEKKEKKEKKEKKEKKSKKEKKEKK
B5: mNG-Snu13 (protein, UniProt P39990 1-126)
chain: MSAPNPKAFPLADAALTQQILDVVQQAANLRQLKKGANEATKTLNRGISEFIIMAADCEPIEILLHLPLLCEDKNVPYVFVPSRVALGRACGVSRPVIAASITTNDASAIKTQIYAVKDKIETLLI

How the values were obtained:
[1] = target: T1, protein A (PrA)-tagged Cbp80 (S. cerevisiae) (UniProt P34160); test: pull-down; mRNP-SiMPull: lysate of cryo-ground yeast cross-linked with 0.2% formaldehyde, PrA-tagged bait pulled down on rabbit IgG Dynabeads at 8°C for 10 min (mTBT16 buffer: 20 mM HEPES-KOH pH 7.4, 12.5 mM KOAc, 2 mM MgCl2, 0.5% Triton X-100, 0.1% Tween 20), eluted by HRV3C protease, captured on a slide by mNG, HA or Yra1 antibody, TIRF imaging; spot counts and photobleaching steps, no-PrA control subtracted (Sub2-mNG: capture via Cbp20-SNAPf-3HA with HA antibody)
T1 sequence: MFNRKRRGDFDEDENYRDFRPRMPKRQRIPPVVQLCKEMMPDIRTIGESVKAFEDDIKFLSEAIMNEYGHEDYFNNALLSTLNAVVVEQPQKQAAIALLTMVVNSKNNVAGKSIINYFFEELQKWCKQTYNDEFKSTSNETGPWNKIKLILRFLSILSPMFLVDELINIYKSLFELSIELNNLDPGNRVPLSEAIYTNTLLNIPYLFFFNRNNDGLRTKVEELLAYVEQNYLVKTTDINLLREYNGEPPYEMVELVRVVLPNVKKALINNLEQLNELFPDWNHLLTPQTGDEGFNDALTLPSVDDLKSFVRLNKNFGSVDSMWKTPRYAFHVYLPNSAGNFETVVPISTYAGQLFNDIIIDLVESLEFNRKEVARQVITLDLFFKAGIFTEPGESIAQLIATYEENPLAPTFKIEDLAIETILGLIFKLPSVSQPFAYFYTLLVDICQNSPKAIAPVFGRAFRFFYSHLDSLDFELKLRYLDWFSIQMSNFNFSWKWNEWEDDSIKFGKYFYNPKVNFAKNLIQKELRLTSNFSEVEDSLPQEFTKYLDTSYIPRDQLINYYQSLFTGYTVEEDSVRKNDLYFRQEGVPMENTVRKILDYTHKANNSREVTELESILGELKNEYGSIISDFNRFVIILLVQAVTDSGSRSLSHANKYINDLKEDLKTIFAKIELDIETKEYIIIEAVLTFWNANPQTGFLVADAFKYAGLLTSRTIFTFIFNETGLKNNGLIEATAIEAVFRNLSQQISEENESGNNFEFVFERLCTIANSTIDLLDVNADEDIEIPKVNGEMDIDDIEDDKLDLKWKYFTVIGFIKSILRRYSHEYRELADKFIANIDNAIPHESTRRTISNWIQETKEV

[2] = target: T2, Mex67, mNG-tagged (S. cerevisiae) (UniProt Q99257); test: pull-down; mRNP-SiMPull with Cbp80-PrA: Mtr2 in Mex67-bound spots (Figure S5F); tags and capture not given
T2 sequence: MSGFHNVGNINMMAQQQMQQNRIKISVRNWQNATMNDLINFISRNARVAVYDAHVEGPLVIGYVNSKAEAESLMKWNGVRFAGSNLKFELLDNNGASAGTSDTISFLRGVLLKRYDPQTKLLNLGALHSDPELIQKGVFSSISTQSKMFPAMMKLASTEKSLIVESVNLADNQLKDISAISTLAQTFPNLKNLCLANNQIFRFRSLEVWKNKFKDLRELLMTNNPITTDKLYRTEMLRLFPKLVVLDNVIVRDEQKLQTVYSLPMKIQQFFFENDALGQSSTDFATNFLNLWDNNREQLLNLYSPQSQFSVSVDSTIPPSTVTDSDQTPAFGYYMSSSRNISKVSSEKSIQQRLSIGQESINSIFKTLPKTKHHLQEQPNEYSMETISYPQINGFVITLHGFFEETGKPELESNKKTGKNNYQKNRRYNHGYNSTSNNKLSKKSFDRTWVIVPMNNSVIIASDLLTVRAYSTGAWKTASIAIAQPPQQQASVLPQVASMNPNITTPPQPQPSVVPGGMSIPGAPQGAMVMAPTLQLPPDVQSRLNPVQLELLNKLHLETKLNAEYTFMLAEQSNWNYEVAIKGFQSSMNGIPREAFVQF

[3] = target: T3, Nop56-PrA (S. cerevisiae) (UniProt Q12460); test: pull-down; mRNP-SiMPull: lysate of cryo-ground yeast cross-linked with 0.2% formaldehyde, PrA-tagged bait pulled down on rabbit IgG Dynabeads at 8°C for 10 min (mTBT16 buffer: 20 mM HEPES-KOH pH 7.4, 12.5 mM KOAc, 2 mM MgCl2, 0.5% Triton X-100, 0.1% Tween 20), eluted by HRV3C protease, captured on a slide by mNG, HA or Yra1 antibody, TIRF imaging; spot counts and photobleaching steps, no-PrA control subtracted (Sub2-mNG: capture via Cbp20-SNAPf-3HA with HA antibody)
T3 sequence: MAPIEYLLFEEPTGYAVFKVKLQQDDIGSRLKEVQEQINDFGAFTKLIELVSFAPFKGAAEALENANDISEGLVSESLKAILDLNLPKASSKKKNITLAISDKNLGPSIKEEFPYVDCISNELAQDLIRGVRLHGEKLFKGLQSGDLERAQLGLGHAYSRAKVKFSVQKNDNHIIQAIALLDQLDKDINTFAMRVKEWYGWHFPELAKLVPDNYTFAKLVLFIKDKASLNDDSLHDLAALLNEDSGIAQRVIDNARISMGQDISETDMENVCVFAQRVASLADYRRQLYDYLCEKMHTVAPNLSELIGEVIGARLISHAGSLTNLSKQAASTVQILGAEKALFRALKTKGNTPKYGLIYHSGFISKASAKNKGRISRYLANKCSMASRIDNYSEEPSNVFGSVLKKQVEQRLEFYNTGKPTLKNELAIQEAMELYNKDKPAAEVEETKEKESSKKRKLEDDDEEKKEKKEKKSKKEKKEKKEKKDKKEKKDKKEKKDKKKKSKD

Row | Binder | binding [1] | binding [3] | also measured
1 | B1 | binds | – | –
2 | B2 | binds | – | –
3 | B3 | – | – | binding [2]: binds
4 | B4 | – | binds | –
5 | B5 | – | binds | –

From article PMC10841842, “Single-molecule quantitation of RNA-binding protein occupancy and stoichiometry defines a role for Yra1 (Aly/REF) in nuclear mRNP organization” (Cell reports, 2023)
